Laboratory results: PubChem BioAssay AID743121 (NCATS, 2013)

Assay: 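Partners whose loss is lethal together with topoisomerase I blockade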 (primary screen)
Cell system: MDA-MB-231 cells, a human breast cancer line
Knock-down reagent: single siRNA against human genes, 20 nM siRNA (0.8 pmol per well)
Duration: 120 h (drug added 48 h after transfection, read 72 h later)
Conditions: camptothecin 20 nM (about EC30) for 72 h; vehicle 0.1% DMSO in parallel plates
Measured: 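Cell viability by ATP luminescence (CellTiter-Glo) as % of non-targeting siRNA wells, and the log2 ratio of viability without drug over viability with camptothecin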
Direction: log2 vehicle/camptothecin viability: higher = stronger sensitisation to camptothecin; viability with camptothecin: higher = more viable cells
Active means: 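Active genes have an RSA gene-level p-value below 0.001, computed from the ratios of their separate siRNAs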
This is an unselected part of about 26,000 reagents tested. Of all reagents, 167 (0.63%) are marked active. 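Calls are per gene from RSA p-values that are not deposited; an individual active-marked siRNA can sensitise only weakly.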 Unmarked entries are inactive. Not all columns of the deposit are shown. Reagent sequences are not shown.

| gene | PubChem SID | log2 vehicle/camptothecin viability | viability with camptothecin (% of control) |
| --- | --- | --- | --- |
| CSH1 (chorionic somatomammotropin hormone 1) | SID164366509 | -0.484 | 74.3 |
| CSH1 (chorionic somatomammotropin hormone 1) | SID164366511 | 0.118 | 58.6 |
| CSH1 (chorionic somatomammotropin hormone 1) | SID164366513 | -0.415 | 74.2 |
| FZR1 (fizzy and cell division cycle 20 related 1) | SID164473488 | -0.711 | 83 |
| FZR1 (fizzy and cell division cycle 20 related 1) | SID164473490 | 0.547 | 17.5 |
| FZR1 (fizzy and cell division cycle 20 related 1) | SID164473491 | 0.133 | 22.9 |
| FZR1 (fizzy and cell division cycle 20 related 1) | SID164473492 | -0.00934 | 98.7 |
| RDH14 (retinol dehydrogenase 14) | SID164495641 | 0.0296 | 73.9 |
| RDH14 (retinol dehydrogenase 14) | SID164495643 | -0.204 | 65.6 |
| RDH14 (retinol dehydrogenase 14) | SID164495645 | -0.56 | 57.1 |
| RDH14 (retinol dehydrogenase 14) | SID164495646 | 0.766 | 29.2 |
| KIF20A (kinesin family member 20A) | SID164408754 | 0.364 | 20.4 |
| KIF20A (kinesin family member 20A) | SID164408756 | -0.0888 | 83.2 |
| KIF20A (kinesin family member 20A) | SID164408762 | 0.0876 | 46.1 |
| KIF20A (kinesin family member 20A) | SID164408764 | -0.126 | 95.6 |
| TMEM116 (transmembrane protein 116) | SID164549625 | -0.247 | 112 |
| TMEM116 (transmembrane protein 116) | SID164549627 | 0.0651 | 88.1 |
| TMEM116 (transmembrane protein 116) | SID164549628 | 0.231 | 74.3 |
| TMEM116 (transmembrane protein 116) | SID164549630 | -0.233 | 94.2 |
| VDAC2 (voltage dependent anion channel 2) | SID164393767 | 1.12 | 9.14 |
| VDAC2 (voltage dependent anion channel 2) | SID164393769 | -0.285 | 118 |
| VDAC2 (voltage dependent anion channel 2) | SID164393770 | -0.0883 | 112 |
| VDAC2 (voltage dependent anion channel 2) | SID174316009 | -0.313 | 88.2 |
| SHROOM1 (shroom family member 1) | SID164570380 | -0.133 | 73.2 |
| SHROOM1 (shroom family member 1) | SID164570382 | -0.204 | 86.4 |
| SHROOM1 (shroom family member 1) | SID164570383 | -0.21 | 49.6 |
| SHROOM1 (shroom family member 1) | SID164570384 | 0.455 | 25.2 |
| SRD5A1 (steroid 5 alpha-reductase 1) | SID164389676 | -0.311 | 90.6 |
| SRD5A1 (steroid 5 alpha-reductase 1) | SID164389678 | -0.142 | 112 |
| SRD5A1 (steroid 5 alpha-reductase 1) | SID164389679 | -0.519 | 56.5 |
| SRD5A1 (steroid 5 alpha-reductase 1) | SID164389681 | -0.126 | 112 |
| PARP1 (poly(ADP-ribose) polymerase 1) | SID164352518 | -0.162 | 105 |
| PARP1 (poly(ADP-ribose) polymerase 1) | SID164352520 | -0.0606 | 73.1 |
| PARP1 (poly(ADP-ribose) polymerase 1) | SID164352523 | -0.302 | 54.2 |
| PARP1 (poly(ADP-ribose) polymerase 1) | SID164352525 | -0.593 | 71.5 |
| PHKA1 (phosphorylase kinase regulatory subunit alpha 1) | SID164380563 | -0.245 | 117 |
| PHKA1 (phosphorylase kinase regulatory subunit alpha 1) | SID164380565 | -0.338 | 51.3 |
| PHKA1 (phosphorylase kinase regulatory subunit alpha 1) | SID164380566 | -0.341 | 60.8 |
| PHKA1 (phosphorylase kinase regulatory subunit alpha 1) | SID164380567 | -0.374 | 71.2 |
| GPHN (gephyrin) | SID164409750 | -0.225 | 92.3 |
| GPHN (gephyrin) | SID164409752 | 0.209 | 79.3 |
| GPHN (gephyrin) | SID164409753 | -0.0273 | 89.4 |
| GPHN (gephyrin) | SID164409754 | -0.195 | 107 |
| GPR15 (G protein-coupled receptor 15) | SID164367302 | -0.655 | 88 |
| GPR15 (G protein-coupled receptor 15) | SID164367303 | -0.218 | 71.5 |
| GPR15 (G protein-coupled receptor 15) | SID164367306 | -0.324 | 57.3 |
| GPR15 (G protein-coupled receptor 15) | SID164367308 | -0.432 | 65 |
| DPP10 (dipeptidyl peptidase like 10) | SID164495412 | -0.332 | 93.5 |
| DPP10 (dipeptidyl peptidase like 10) | SID164495413 | -0.0824 | 128 |
| DPP10 (dipeptidyl peptidase like 10) | SID164495414 | -0.277 | 103 |
| DPP10 (dipeptidyl peptidase like 10) | SID164495415 | -0.0771 | 103 |
| UGGT1 (UDP-glucose glycoprotein glucosyltransferase 1) | SID164491507 | -0.0233 | 87.3 |
| UGGT1 (UDP-glucose glycoprotein glucosyltransferase 1) | SID164491508 | -0.0161 | 84.9 |
| UGGT1 (UDP-glucose glycoprotein glucosyltransferase 1) | SID164491511 | -0.448 | 36.3 |
| BTN2A2 (butyrophilin subfamily 2 member A2) | SID164410616 | -0.222 | 109 |
| BTN2A2 (butyrophilin subfamily 2 member A2) | SID164410618 | -0.261 | 79.1 |
| BTN2A2 (butyrophilin subfamily 2 member A2) | SID164410619 | -0.369 | 66 |
| BTN2A2 (butyrophilin subfamily 2 member A2) | SID164410620 | -0.523 | 67.2 |
| ALDH3A2 (aldehyde dehydrogenase 3 family member A2) | SID164353019 | -0.243 | 69.8 |
| ALDH3A2 (aldehyde dehydrogenase 3 family member A2) | SID164353020 | -0.275 | 46.2 |
| ALDH3A2 (aldehyde dehydrogenase 3 family member A2) | SID164353021 | -0.147 | 98.6 |
| ALDH3A2 (aldehyde dehydrogenase 3 family member A2) | SID164353023 | -0.139 | 82.3 |
| PARD6G (par-6 family cell polarity regulator gamma) | SID164545585 | -0.256 | 105 |
| PARD6G (par-6 family cell polarity regulator gamma) | SID164545586 | -0.255 | 61.6 |
| PARD6G (par-6 family cell polarity regulator gamma) | SID164545587 | -0.0148 | 70.3 |
| PARD6G (par-6 family cell polarity regulator gamma) | SID164545590 | -0.681 | 89.1 |
| CLEC4D (C-type lectin domain family 4 member D) | SID164656845 | -0.315 | 54.7 |
| CLEC4D (C-type lectin domain family 4 member D) | SID164656846 | 0.0086 | 51.5 |
| CLEC4D (C-type lectin domain family 4 member D) | SID164656848 | -0.712 | 74.1 |
| CLEC4D (C-type lectin domain family 4 member D) | SID164656849 | -1.23 | 39.6 |
